# Percent effect of library compounds

Data taken from ChEMBL document CHEMBL3988442, “University of Dundee, Small-Polar-MMV Screening Library” (2021).

Results are given as percent effect. The controls that fix the scale are not given in the record; negative values are as filed. This is an unselected part of the compounds tested. Two or more numbers in one place are separate tests of the same structure; such repeats can differ widely.

A: 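Phenotypic screen: M. tuberculosis growth, cholesterol and DPPC medium, 4 days; the read-out is not stated. Compounds at 50 µM. Direction is inferred from retests: higher values go with more growth inhibition. About 69,000 compounds were tested under these conditions; 0.54% (about 370) showed 50% or more at least once.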
B: 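Whole-cell growth test on Mycobacterium tuberculosis, read after 3 days in glucose-containing 7H9 medium; the read-out is not stated. Concentration: 50 µM. Higher reads as more growth inhibition (inferred: compounds with an IC50 in retests scored well above the rest). Of about 69,000 compounds tested this way, about 760 (1.1%) reached 50% or more in at least one test.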

| compound | A | B |
|---|---|---|
| `N#Cc1cccc(S(=O)(=O)NC2CCN(CC(F)(F)F)C2)c1` (centres unmarked) | -3.455% | -3.046% and -5.165% |
| `Cc1cc(C)nc(N2Cc3cnn(Cc4ccc(F)cc4)c3C2)n1` | -23.97% | -0.9694% |
| `CSCCC(NC(=O)c1ccc2ccccc2n1)C(=O)O` (centres unmarked) | 2.591% and -9.834% | -32.08% |
| `CNC(=O)CN1CCC(NC(=O)N(C)Cc2cc(C)on2)CC1` | -14.56% | 2.125% |
| `[H][C@@]12C[C@@H](c3nnc(C4CC4)o3)O[C@]1([H])CN(CC1CCOCC1)C2` | -8.64% | 1.185% |
| `COc1ccc(N2CCN(C(=O)[C@@H]3C[C@@H](O)CN3)CC2(C)C)cc1` | -5.93% | -50.12% |
| `Cc1nnc(CCNC(=O)c2coc(CN3CCOCC3)c2)s1` | -20.88% | -30.35% |
| `COCCn1c(=O)n(C)c(=O)c2ccc(C3CCN(C(C)=O)CC3)nc21` | -6.518% and -5.466% | -6.726% |
| `CN1CCN(C)C(CNC(=O)N(C)Cc2ccc(Cl)c(F)c2)C1` (centres unmarked) | 0.3392% | 2.003% and -9.907% |
| `CNC(=O)CN1CCC(NC(=O)C(C)Oc2ccccc2C#N)CC1` (centres unmarked) | 1.116% | 11.42% |
| `CCc1ccc(C(C)NC(=O)N2CCC(n3cncn3)CC2)cc1` (centres unmarked) | -10.74% | -21.03% and 0.487% |
| `CC(C)(CO)CCCNC(=O)NC1(C)Cc2ccccc2C1` | -11.34% | -2.614% |
| `COc1c(C2CCCN2Cc2nccn2C)c(C)nn1C` (centres unmarked) | -16.1% | -16.38% |
| `CCc1ocnc1C(=O)N1CCN(c2ccc3ccccc3c2)CC1` | -4.499% | 2.332% |
| `Cc1cc(C[C@@H]2COC[C@@H]2NC(=O)CN2CCOC2=O)on1` | -1.688% | 8.248% |
| `CCC(C)(C)NC(=O)CSCc1ccc(S(=O)(=O)N(C)C)o1` | 6.768% | 16.25% |
| `CC(O)(CNc1ccc(Cl)c(C#N)n1)c1ccsc1` (centres unmarked) | 15.09% | 8.846% |
| `[H][C@]12C[C@H](C(=O)NC)N(S(C)(=O)=O)[C@@]1([H])CN(C(=O)c1ccsc1)C2` | -17.66% | 20.17% |
| `CCOc1ccccc1-c1noc(CN2CCOC(CN(C)C)C2)n1` (centres unmarked) | 17.96% | 17.18% |
| `Cc1n[nH]c(C2CN(C(=O)CCc3ccsc3)CCO2)n1` (centres unmarked) | -8.14% | 7.327% and 14.47% |
| `CC(C)NC(=O)N1CCC2(CC(=O)N(c3ccccc3)C2)C1` (centres unmarked) | -39.95% | -34.17% |
| `CC(C)NC(=O)N1CCCn2cnc(CO)c2C1.O=C(O)C(F)(F)F` | 1.04% | -1.143% |
| `Cc1ccc(N2CCC3(CCN(Cc4csc(C)n4)CC3)CC2)nn1` | 7.197% | 12.29% |
| `Cc1cc(NC(=O)NCC2CCOC2)no1` (centres unmarked) | -14.12% | -20.66% |
| `CC(=O)Nc1ccc2nc(-c3nccn3CC(C)(C)CO)ccc2c1` | -18.29% | -11.75% |
| `CCCn1ncc(C(=O)N(CCOC)Cc2c(C)nn(CC)c2C)c1C` | -11.28% and -14.22% | -13.05% |
| `O=C(CCCN1CCCCC1)N[C@H](C(=O)O)c1cccc(F)c1F` | 25.73% | 21.69% |
| `CCS(=O)(=O)NCC(=O)NC(c1cc(C)sc1C)C(C)C` (centres unmarked) | 17.6% | -9.2% |
| `O=C(c1ccc(S(=O)(=O)NCc2ccncc2)cc1)N1CCNCC1` | -6.246% | 11.99% |
| `COc1ccc(-c2nnc([C@H]3CCN(C4CCC4)C3)o2)cc1` | -11.02% | 10.13% and -29.13% |
| `COCc1cc(CNC(=O)c2c(C)cc(C)[nH]c2=O)n[nH]1` | 3.756% | 0.6808% |
| `O=C(c1cc(Cl)c2c(c1)OCO2)N1CCN(c2cnccn2)CC1` | -35.81% | -10.64% |
| `CCCNC(=O)Nc1ccc2c(c1)N(S(=O)(=O)CC)CC2` | -11.48% | -14.87% |
| `Cc1nc2cc(F)cc(C(=O)N3CCN(CCO)CC3)c2nc1C` | -10.69% | -56.44% and 11.63% |
| `O=C(NCCn1ccnc1)C1(c2ccc3c(c2)OCCO3)CCCC1` | -32.85% | -2.666% |
| `CCCc1cc(NCCn2cccn2)n2ncnc2n1` | -11.41% | 4.265% |
| `CCc1noc(CN(CC)Cc2cc3ccc(C)cc3[nH]c2=O)n1` | -23.27% | -41.42% |
| `Cc1cnn(CCCNC(=O)C2CCCCN2Cc2ccncc2)c1` (centres unmarked) | 3.793% | 3.629% |
| `CC1CCN(S(=O)(=O)N2Cc3ccccc3C[C@H]2C(N)=O)CC1` | -9.337% | 7.332% |
| `[H][C@@]12CCN(C(C)=O)C[C@]1([H])OCCN(c1ccsc1)C2=O` | -12.13% | -36.38% and -7.925% |
| `Cc1ccccc1C(C)NC(=O)c1ccc(=O)n(C)c1` (centres unmarked) | 5.153% and -6.545% | -4.723% |
| `CC(=O)NCc1ccc(C(=O)N2CCCC2c2cnn(C)c2)o1` (centres unmarked) | 11.74% | 28.44% |
| `CCC1c2cccn2CCN1C(=O)c1ccc2nonc2c1` (centres unmarked) | -11.89% | 0.1039% and -13.47% |
| `CC(C)CCN(C(=O)c1cccc(NC(N)=O)c1)C1CC1` | -5.452% | 23.05% |
| `O=C1CCCC2(CCN(C(=O)c3cnccn3)CC2)N1` | 10.67% | -4.337% |
| `Cc1cc(NC(=O)NCC(O)c2ccc(F)c(F)c2)n(C)n1` (centres unmarked) | -11.17% | -6.208% |
| `O=C(c1ncccn1)N1CCC[C@]2(C[C@H](OCC3CC3)CO2)C1` | -7.703% and -3.887% | -38.56% |
| `CCc1csc(C2CCCN(C(=O)c3c[nH]c(C)n3)C2)n1` (centres unmarked) | -8.731% | 5.304% |
| `CN1CCN(C(=O)c2cc(-c3cccs3)cs2)CC1` | 19.86% | 11.81% |
| `Cc1cc(C#N)ccc1S(=O)(=O)NCc1cnc(N(C)C)n1C` | -5.857% | 13.55% and -15.08% |
| `CCOCC(=O)Nc1nccn1Cc1ccc(Br)cc1` | -10.71% | -27.56% |
| `Cc1cccc(-n2cc(C(=O)N3CCCC(n4cccn4)C3)nn2)c1` (centres unmarked) | -3.355% | 12.45% |
| `COc1ccc2[nH]nc(CN3CCC(C(C)N4CCCC4)CC3)c2c1` (centres unmarked) | 10.49% | 15.75% |
| `CC(=O)N1CC2(CCCN2Cc2ccc(Cl)cc2)Cc2ccccc21` (centres unmarked) | -23.84% | -28.17% |
| `O=C1CC(NS(=O)(=O)N2CCOCC2)CN1Cc1ccc(F)cc1` (centres unmarked) | 0.1854% | -22.18% |

For reference, 4 entries once more:

{"compound": "CNC(=O)CN1CCC(NC(=O)C(C)Oc2ccccc2C#N)CC1", "stereo": "centres unmarked", "A": 1.116, "B": 11.42}
{"compound": "COc1c(C2CCCN2Cc2nccn2C)c(C)nn1C", "stereo": "centres unmarked", "A": -16.1, "B": -16.38}
{"compound": "CC1CCN(S(=O)(=O)N2Cc3ccccc3C[C@H]2C(N)=O)CC1", "A": -9.337, "B": 7.332}
{"compound": "[H][C@@]12C[C@@H](c3nnc(C4CC4)o3)O[C@]1([H])CN(CC1CCOCC1)C2", "A": -8.64, "B": 1.185}